Test results: PMC5030094, “Human DNA2 possesses a cryptic DNA unwinding activity that functionally integrates with BLM or WRN helicases”
The exact form of at least one protein or probe is not confirmed. The comparison behind a weaker result is the experiment's own reference, which may not be listed here. At least one verdict rests on a figure or table, not on a statement of the authors. Where a protein sequence is shown, tags need not be part of it. The direction of at least one scale is not stated here.

Target: T1, hDNA2 D277A (nuclease-deficient) (Homo sapiens) (UniProt P51530)
T1 sequence (looked up, limits assumed): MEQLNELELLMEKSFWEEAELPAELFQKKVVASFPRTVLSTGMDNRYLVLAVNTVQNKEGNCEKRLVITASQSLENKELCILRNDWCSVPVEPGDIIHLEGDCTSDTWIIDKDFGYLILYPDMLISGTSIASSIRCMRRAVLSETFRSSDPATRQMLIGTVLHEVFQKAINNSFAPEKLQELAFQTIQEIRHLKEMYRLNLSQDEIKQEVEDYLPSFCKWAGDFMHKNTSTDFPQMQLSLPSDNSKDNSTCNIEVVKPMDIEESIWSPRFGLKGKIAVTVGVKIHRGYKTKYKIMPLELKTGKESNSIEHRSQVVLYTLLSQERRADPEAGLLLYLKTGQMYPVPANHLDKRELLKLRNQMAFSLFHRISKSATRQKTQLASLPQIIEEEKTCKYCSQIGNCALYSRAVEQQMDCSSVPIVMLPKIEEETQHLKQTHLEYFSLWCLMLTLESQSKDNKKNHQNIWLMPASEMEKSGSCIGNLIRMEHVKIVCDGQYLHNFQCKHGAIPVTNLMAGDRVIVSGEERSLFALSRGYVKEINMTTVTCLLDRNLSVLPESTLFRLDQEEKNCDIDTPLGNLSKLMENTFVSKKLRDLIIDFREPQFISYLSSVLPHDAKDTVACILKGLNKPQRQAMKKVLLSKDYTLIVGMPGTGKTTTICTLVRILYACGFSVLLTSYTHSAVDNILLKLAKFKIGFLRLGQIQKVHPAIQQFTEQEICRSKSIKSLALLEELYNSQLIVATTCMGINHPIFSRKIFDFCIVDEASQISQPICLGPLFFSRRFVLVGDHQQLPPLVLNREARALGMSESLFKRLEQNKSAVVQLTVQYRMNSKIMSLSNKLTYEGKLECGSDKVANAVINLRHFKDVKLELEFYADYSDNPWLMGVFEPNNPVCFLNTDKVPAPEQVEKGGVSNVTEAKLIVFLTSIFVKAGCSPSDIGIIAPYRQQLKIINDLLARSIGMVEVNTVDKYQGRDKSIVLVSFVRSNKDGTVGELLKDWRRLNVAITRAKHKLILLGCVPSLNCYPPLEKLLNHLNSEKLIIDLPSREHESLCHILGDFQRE
Assay: EMSA
Conditions: no RPA, 25 mM Tris-acetate pH 7.5, 2 mM Mg acetate, 1 mM DTT, 0.1 mg/ml BSA, 1 nM DNA, 37 C 30 min, 6% PAGE in TAE on ice, recombinant protein, protein details: N-terminal 6xHis, C-terminal FLAG

## AAAAAAAAAAAAAAAAAAATAACCTAGCGATGGAACGTAAGTCGCGAT / GACGTCATAGACGATTACATTGCTAGGACATGCTGTCTAGAGACTATCGCGACTTACGTTCCATCGCTAGGTTATTTTTTTTTTTTTTTTTTT [5' overhang (45 nt/48 bp)]
label: 5' 32P on X12-3 HJ1S
  binding result: binds

## GACGTCATAGACGATTACATTGCTAGGACATGCTGTCTAGAGACTATCGC (double strand) [dsDNA (50 bp)]
label: 5' 32P on X12-3
  binding result: binds more weakly

## GACGTCATAGACGATTACATTGCTAGGACATGCTGTCTAGAGACTATCGC / GCGATAGTCTCTAGACAGCATGTCCTAGCAA [5' overhang (19 nt/31 bp)]
label: 5' 32P on X12-3
  binding signal (fold weaker than ssDNA): 8

## GACGTCATAGACGATTACATTGCTAGGACATGCTGTCTAGAGACTATCGC / GCGATAGTCTCTAGACAGCATGTCCTAGCAAGCCAGAATTCGGCAGGCTA [Y-structure (19 nt/31 bp)]
label: 5' 32P on X12-3
  binding result: binds

## GCTGGTTTAGGACGCACTTG [ssDNA 20 nt (Primer 308)]
label: 5' 32P, single-stranded DNA
  binding result: binds more weakly

## GGATTACATTGCTAGGACATGCTGTCTAGAGACTATCGC / GCGATAGTCTCTAGACAGCATGTCCTAGCAA [5' overhang (30 nt/31 bp)]
label: 5' 32P on #292
  binding result: binds

## TTGCTAGGACATGCTGTCTAGAGACTATCGC / GCGATAGTCTCTAGACAGCATGTCCTAGCAAGCCAGAATTCGGCAGGCTA [3' overhang (19 nt/31 bp)]
label: 5' 32P on X12-3 SC
  binding signal (fold weaker than ssDNA): 12
